Results are given in words; binding and its absence hold for the method and conditions named. Binding seen in cells or lysates may run through a third protein. A result given as binding can be weak or reduced; the word gives no strength.
Target: FLAG-tagged TRAIL (tumor necrosis factor-related apoptosis inducing ligand) (human) (UniProt P50591)
Test: co-IP; DISC immunoprecipitation: U251MG cells (control-AdV or Notch1sh-AdV, 72 h) incubated with FLAG-tagged TRAIL (500 ng/ml) for the indicated times, washed, lysed (20 mM Tris-HCl pH 7.4, 150 nM NaCl, 0.2% Nonidet P40, 10% glycerol); precipitated overnight with anti-FLAG M2 agarose beads; blots probed for DR5 and Caspase-8; only the target purified

Chains of the proteins cited; added tags and fusions are not shown. Lines headed by an entry give the natural chain unless they say otherwise; changes in a name come on top.
UniProt P50591: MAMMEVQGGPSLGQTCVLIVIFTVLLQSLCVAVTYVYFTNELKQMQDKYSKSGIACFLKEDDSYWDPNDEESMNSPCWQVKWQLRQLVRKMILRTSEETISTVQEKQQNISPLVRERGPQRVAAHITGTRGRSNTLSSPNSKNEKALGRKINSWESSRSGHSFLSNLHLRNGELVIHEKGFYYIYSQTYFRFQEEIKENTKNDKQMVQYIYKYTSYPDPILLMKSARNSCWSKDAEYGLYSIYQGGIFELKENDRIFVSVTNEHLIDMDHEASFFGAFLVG
UniProt Q14790: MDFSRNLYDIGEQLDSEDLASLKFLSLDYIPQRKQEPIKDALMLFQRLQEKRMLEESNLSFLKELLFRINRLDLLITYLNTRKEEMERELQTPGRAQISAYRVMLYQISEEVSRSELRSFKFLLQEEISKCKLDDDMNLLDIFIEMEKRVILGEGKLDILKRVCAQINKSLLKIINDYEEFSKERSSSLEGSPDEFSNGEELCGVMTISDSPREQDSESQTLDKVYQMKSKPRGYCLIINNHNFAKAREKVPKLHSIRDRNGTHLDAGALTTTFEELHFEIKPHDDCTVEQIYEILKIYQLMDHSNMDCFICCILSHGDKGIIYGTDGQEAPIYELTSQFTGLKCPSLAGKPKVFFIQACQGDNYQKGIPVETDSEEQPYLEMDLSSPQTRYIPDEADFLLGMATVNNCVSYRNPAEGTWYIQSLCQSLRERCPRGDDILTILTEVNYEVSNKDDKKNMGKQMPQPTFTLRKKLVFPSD

Substance: Caspase-8 (from UniProt Q14790 1-479) (enzyme)
- binding: binds

Source: article PMC4632291
